These results are taken from US20220265821A1.

Results are given in words; binding and its absence hold for the method and conditions named. Some entries that bind do so weakly or less than the wild type.

In the assay the target is T1, mouse VpreB1 (on the mouse pre-B cell line L1.2) (mouse) (UniProt P13372).
T1 sequence: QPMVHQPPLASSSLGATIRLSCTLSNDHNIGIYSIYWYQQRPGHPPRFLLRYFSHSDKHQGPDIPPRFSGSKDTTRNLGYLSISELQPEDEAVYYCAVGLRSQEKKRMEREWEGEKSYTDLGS
Briefly: flow cytometry on L1.2 cells, 20 nM antibody. In general terms: A flow cytometer gives signals particle by particle.

B1: VpreB antibody 5-14H5 (recombinant mouse-human chimeric IgG1/kappa) (antibody, V domains shown)
VH: QVQLQQPGAELVKPGASVKLSCKASGYTFTSNWMNWVKQRPGQGLEWIGEINPSNGRINYNEKFKSKATLTVDKSSSTAYMQLSSLTSEDSAVYYCARSGLLDYWGQGTTLTVSS
VL: DVLMTQTPLSLPVSLGDQASISCRSSQSLVHSNGNTYLHWYLQKPGQSPKLLIYKVSNRFSGVPDRFSGSGSGTDFTLKISRVEAEDLGVYFCSQSTYLPLTFGAGTRLELKR
In the case of B1, the binding result is on record as “binds”.

B2: VpreB antibody 5-4A9 (recombinant mouse-human chimeric IgG1/kappa) (antibody, V domains shown)
VH: EVQLQQSGAELVKPGASVQLSCKASGYTFTSYWMQWVKQRPGQGLEWIGEINPSNGRNNYNEKFKRKATLTVDTSSSTAYMQLSSLTSEDSAVYYCARSGLLDYWGQGTTLTVSS
VL: DVLMTQTPLSLPVSLGDQASISCRSSQSLVHSNGNTYLHWYLQKPGQSPKLLIYKVSNRFSGVPDRFSGSGSGTDFTLTISRVEAEDLGVYFCSQSTYVPLTFGAGTKLELKR
Regarding B2, the binding result is “binds”.
